The target of this assay is MITF (endogenous in WM3682 melanoma cells) (human (endogenous in WM3682)) (UniProt O75030). The assay can be described thus: co-IP.

Amino acid sequences for entries named in this document (tags omitted). A change or cut given only in a name is not applied to a line headed by its entry.
UniProt O75030: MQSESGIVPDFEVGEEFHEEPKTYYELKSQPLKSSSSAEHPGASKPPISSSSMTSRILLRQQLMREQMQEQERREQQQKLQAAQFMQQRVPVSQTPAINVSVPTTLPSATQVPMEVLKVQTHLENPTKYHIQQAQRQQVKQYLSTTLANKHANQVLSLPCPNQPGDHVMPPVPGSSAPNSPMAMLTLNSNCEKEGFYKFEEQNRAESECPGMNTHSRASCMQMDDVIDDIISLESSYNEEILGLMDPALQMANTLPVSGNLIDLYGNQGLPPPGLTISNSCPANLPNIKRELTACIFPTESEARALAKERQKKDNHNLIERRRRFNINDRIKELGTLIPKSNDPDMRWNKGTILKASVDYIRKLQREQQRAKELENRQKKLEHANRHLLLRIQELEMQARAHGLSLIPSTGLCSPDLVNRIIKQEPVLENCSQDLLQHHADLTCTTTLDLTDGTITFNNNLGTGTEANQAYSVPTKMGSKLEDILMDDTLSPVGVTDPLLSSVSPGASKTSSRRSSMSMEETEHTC
UniProt Q01860: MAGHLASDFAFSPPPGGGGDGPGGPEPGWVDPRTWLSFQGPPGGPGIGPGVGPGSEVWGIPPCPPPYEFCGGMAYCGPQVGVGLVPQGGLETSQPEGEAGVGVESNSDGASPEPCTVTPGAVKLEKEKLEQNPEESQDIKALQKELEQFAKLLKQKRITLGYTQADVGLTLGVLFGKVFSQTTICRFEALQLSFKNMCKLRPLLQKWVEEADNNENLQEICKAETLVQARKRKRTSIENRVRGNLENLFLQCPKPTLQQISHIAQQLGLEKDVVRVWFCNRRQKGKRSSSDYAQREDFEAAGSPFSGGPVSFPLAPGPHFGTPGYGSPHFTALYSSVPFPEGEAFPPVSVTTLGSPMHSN

No constants are given. Whether binding was seen depends on the method and setting. In cells and extracts the contact can be indirect. Binding can be weak; no strength is given.

“OCT4-Flag (expressed in WM3682 cells) (from UniProt Q01860 1-360)”: the binding entry is on record as “binds”.

Values taken from publication doi:10.1101/142943.
